Taken from: PubChem BioAssay AID1508597 (Cure First, 2020)

Purpose: 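Genes whose silencing sensitises or protects ovarian cancer cells against rucaparib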 (primary screen)
Cell system: human ovarian carcinoma lines grown from tumours: OCI-P5x (papillary serous) and OCI-C5x (clear cell)
Reagents: siRNA pool against human genes, 1.25 pmol siRNA per well
Duration: 72 h or 96 h, depending on the cell culture
Treatment: rucaparib 20 µM (about IC30) or vehicle, present until read-out
Rucaparib or vehicle: Vehicle
Cell line: OCI-P5x (serous)
Measured: 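ATP luminescence measured at 72 or 96 h according to the culture, then normalised and expressed as percent viability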
Reading the numbers: viability, normalised: higher = more viable cells remaining
Active means: 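Active when normalised viability falls below 80 percent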
Meaning of the calls: active = viability under 80%; inactive = viability 80% or more
This is a random part of the about 2,100 reagents, in one setting of the screen. 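Calls flag viability under 80% in either arm, not effects specific to rucaparib; the reference for percent is not stated.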 Entries without a mark were called inactive. The record does not give: the 100% reference.

target,technical replicate,"viability, normalised (%)"
NCOA1 (nuclear receptor coactivator 1),1,42 (active)
NCOA1 (nuclear receptor coactivator 1),2,40.7 (active)
NCOA1 (nuclear receptor coactivator 1),3,43.9 (active)
NSD2 (nuclear receptor binding SET domain protein 2),1,54.2 (active)
NSD2 (nuclear receptor binding SET domain protein 2),2,49.7 (active)
NSD2 (nuclear receptor binding SET domain protein 2),3,62.6 (active)
POLM (DNA polymerase mu),1,90.2
POLM (DNA polymerase mu),2,88.7
POLM (DNA polymerase mu),3,98.7
"ZC3HAV1 (zinc finger CCCH-type containing, antiviral 1)",1,99.6
"ZC3HAV1 (zinc finger CCCH-type containing, antiviral 1)",2,63.9 (active)
"ZC3HAV1 (zinc finger CCCH-type containing, antiviral 1)",3,115
GCKR (glucokinase regulator),1,51.6 (active)
GCKR (glucokinase regulator),2,48.6 (active)
GCKR (glucokinase regulator),3,53.5 (active)
CXXC4 (CXXC finger protein 4),1,66.3 (active)
CXXC4 (CXXC finger protein 4),2,87.7
CXXC4 (CXXC finger protein 4),3,70.3 (active)
HIRIP3 (HIRA interacting protein 3),1,65.7 (active)
HIRIP3 (HIRA interacting protein 3),2,59.5 (active)
HIRIP3 (HIRA interacting protein 3),3,68.7 (active)
GDPD3 (glycerophosphodiester phosphodiesterase domain containing 3),1,58.7 (active)
GDPD3 (glycerophosphodiester phosphodiesterase domain containing 3),2,73.9 (active)
GDPD3 (glycerophosphodiester phosphodiesterase domain containing 3),3,91.1

Continued, starting with the last 3 of the part before.
target,technical replicate,"viability, normalised (%)"
GDPD3 (glycerophosphodiester phosphodiesterase domain containing 3),1,58.7 (active)
GDPD3 (glycerophosphodiester phosphodiesterase domain containing 3),2,73.9 (active)
GDPD3 (glycerophosphodiester phosphodiesterase domain containing 3),3,91.1
CDK10 (cyclin dependent kinase 10),1,95.4
CDK10 (cyclin dependent kinase 10),2,90.6
CDK10 (cyclin dependent kinase 10),3,98.8
MYO3A (myosin IIIA),1,89.1
MYO3A (myosin IIIA),2,78.6 (active)
MYO3A (myosin IIIA),3,78.9 (active)
"ROS1 (ROS proto-oncogene 1, receptor tyrosine kinase)",1,65.6 (active)
"ROS1 (ROS proto-oncogene 1, receptor tyrosine kinase)",2,72.3 (active)
"ROS1 (ROS proto-oncogene 1, receptor tyrosine kinase)",3,74.5 (active)
BBC3 (BCL2 binding component 3),1,84.8
BBC3 (BCL2 binding component 3),2,85.5
BBC3 (BCL2 binding component 3),3,94.2
SETDB1 (SET domain bifurcated histone lysine methyltransferase 1),1,58.9 (active)
SETDB1 (SET domain bifurcated histone lysine methyltransferase 1),2,67 (active)
SETDB1 (SET domain bifurcated histone lysine methyltransferase 1),3,89.7
